Data reported in publication PMC8034445.
No constants are given. Whether binding was seen depends on the method and setting. Binding seen in cells or lysates may run through a third protein. Some entries that bind do so weakly or less than the wild type.

The chains behind the UniProt entries cited, without tags or fusion partners. Where a name states a change or a piece, a line headed by the entry shows the natural chain unless it says otherwise.
UniProt O14744: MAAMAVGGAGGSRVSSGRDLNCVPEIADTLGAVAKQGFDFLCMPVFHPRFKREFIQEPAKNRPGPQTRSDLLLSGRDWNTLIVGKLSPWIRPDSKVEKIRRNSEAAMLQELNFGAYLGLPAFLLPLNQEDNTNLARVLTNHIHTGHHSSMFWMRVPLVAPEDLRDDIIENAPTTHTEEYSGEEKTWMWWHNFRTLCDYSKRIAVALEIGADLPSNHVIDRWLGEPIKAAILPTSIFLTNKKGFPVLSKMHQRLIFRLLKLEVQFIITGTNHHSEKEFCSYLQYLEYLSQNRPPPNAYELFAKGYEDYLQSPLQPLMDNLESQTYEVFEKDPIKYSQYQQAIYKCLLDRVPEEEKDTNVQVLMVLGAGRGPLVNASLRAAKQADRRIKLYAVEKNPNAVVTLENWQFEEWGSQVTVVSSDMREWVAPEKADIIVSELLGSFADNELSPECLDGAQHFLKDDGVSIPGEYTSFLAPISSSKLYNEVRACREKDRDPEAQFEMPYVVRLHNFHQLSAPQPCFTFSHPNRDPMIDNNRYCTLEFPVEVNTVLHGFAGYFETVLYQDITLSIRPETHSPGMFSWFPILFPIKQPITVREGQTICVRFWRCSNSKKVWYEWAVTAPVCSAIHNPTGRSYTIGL
UniProt P33993: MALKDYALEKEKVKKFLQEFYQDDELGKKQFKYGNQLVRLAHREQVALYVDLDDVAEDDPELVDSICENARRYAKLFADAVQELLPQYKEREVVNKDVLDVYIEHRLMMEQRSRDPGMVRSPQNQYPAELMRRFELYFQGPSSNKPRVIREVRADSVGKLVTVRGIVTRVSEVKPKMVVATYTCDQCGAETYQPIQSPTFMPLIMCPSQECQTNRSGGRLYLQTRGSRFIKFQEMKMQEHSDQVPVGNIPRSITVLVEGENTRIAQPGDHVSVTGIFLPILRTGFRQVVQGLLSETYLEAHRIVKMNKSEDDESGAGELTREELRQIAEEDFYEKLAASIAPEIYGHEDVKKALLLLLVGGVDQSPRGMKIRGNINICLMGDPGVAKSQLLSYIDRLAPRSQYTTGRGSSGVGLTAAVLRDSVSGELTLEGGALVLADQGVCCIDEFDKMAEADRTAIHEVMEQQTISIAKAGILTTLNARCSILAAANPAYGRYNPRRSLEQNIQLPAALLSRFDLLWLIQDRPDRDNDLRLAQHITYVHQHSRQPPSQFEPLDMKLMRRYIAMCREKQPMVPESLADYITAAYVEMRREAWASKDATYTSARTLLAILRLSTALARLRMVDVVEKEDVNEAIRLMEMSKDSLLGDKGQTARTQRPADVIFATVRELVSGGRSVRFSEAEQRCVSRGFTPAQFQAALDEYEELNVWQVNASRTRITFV

Experiments:
[1] = target: Myc-tagged PRMT5, full length (human) (UniProt O14744); experiment: co-IP; HEK293T cells transiently transfected with Myc-PRMT5 and/or FLAG-MCM7 (full length or truncations); IP with anti-Myc antibody beads overnight at 4°C; blot with anti-FLAG or anti-Myc
[2] = target: FLAG-tagged MCM7, full length (UniProt P33993); experiment: co-IP; HEK293T cells transiently transfected with Myc-PRMT5 and/or FLAG-MCM7; IP with anti-FLAG antibody beads overnight at 4°C

Substance | binding [1] | binding [2]
FLAG-tagged MCM7 truncation, residues 1-248 (from UniProt P33993 1-248) (domain or fragment) | binds | –
FLAG-tagged MCM7 truncation, residues 249-427 (from UniProt P33993 249-427) (domain or fragment) | no binding | –
FLAG-tagged MCM7 truncation, residues 428-719 (from UniProt P33993 428-719) (domain or fragment) | no binding | –
Myc-tagged PRMT5, full length (from UniProt O14744 1-637) (enzyme) | – | binds
